Measurements reported in ChEMBL document CHEMBL4316593 (Eur J Med Chem, 2019).
This continues a long series; more values of the same kind are listed elsewhere.

Legend:
Format in all cases: cell-based
Details in all cases: U-87MG ATCC
[1] = Inhibition of RTK/PI3K/AKT/mTOR signaling in human U87 cells assessed as down regulation of TSHZ1 gene expression at cytotoxic IC50 measured after 48 hrs relative to control
[2] = Inhibition of RTK/PI3K/AKT/mTOR signaling in human U87 cells assessed as down regulation of DENND2C gene expression at cytotoxic IC50 measured after 48 hrs relative to control
[3] = Inhibition of RTK/PI3K/AKT/mTOR signaling in human U87 cells assessed as down regulation of NCEH1 gene expression at cytotoxic IC50 measured after 48 hrs relative to control
[4] = Inhibition of RTK/PI3K/AKT/mTOR signaling in human U87 cells assessed as down regulation of WDR7 gene expression at cytotoxic IC50 measured after 48 hrs relative to control
[5] = Inhibition of RTK/PI3K/AKT/mTOR signaling in human U87 cells assessed as down regulation of FAM111A gene expression at cytotoxic IC50 measured after 48 hrs relative to control
[6] = Inhibition of RTK/PI3K/AKT/mTOR signaling in human U87 cells assessed as down regulation of ARL13B gene expression at cytotoxic IC50 measured after 48 hrs relative to control
[7] = Inhibition of RTK/PI3K/AKT/mTOR signaling in human U87 cells assessed as down regulation of MGEA5 gene expression at cytotoxic IC50 measured after 48 hrs relative to control
[8] = Inhibition of RTK/PI3K/AKT/mTOR signaling in human U87 cells assessed as down regulation of AAK1 gene expression at cytotoxic IC50 measured after 48 hrs relative to control
[9] = Inhibition of RTK/PI3K/AKT/mTOR signaling in human U87 cells assessed as down regulation of ENDOD1 gene expression at cytotoxic IC50 measured after 48 hrs relative to control
[10] = Inhibition of RTK/PI3K/AKT/mTOR signaling in human U87 cells assessed as down regulation of TBRG1 gene expression at cytotoxic IC50 measured after 48 hrs relative to control
[11] = Inhibition of RTK/PI3K/AKT/mTOR signaling in human U87 cells assessed as down regulation of ATP5G3 gene expression at cytotoxic IC50 measured after 48 hrs relative to control
[12] = Inhibition of RTK/PI3K/AKT/mTOR signaling in human U87 cells assessed as down regulation of PHC3 gene expression at cytotoxic IC50 measured after 48 hrs relative to control
[13] = Inhibition of RTK/PI3K/AKT/mTOR signaling in human U87 cells assessed as down regulation of DDX49 gene expression at cytotoxic IC50 measured after 48 hrs relative to control
[14] = Inhibition of RTK/PI3K/AKT/mTOR signaling in human U87 cells assessed as down regulation of MAP1S gene expression at cytotoxic IC50 measured after 48 hrs relative to control
[15] = Inhibition of RTK/PI3K/AKT/mTOR signaling in human U87 cells assessed as down regulation of SPATS2L gene expression at cytotoxic IC50 measured after 48 hrs relative to control
[16] = Inhibition of RTK/PI3K/AKT/mTOR signaling in human U87 cells assessed as down regulation of WDR1 gene expression at cytotoxic IC50 measured after 48 hrs relative to control
[17] = Inhibition of RTK/PI3K/AKT/mTOR signaling in human U87 cells assessed as up regulation of ELF3 gene expression at cytotoxic IC50 measured after 48 hrs relative to control
[18] = Inhibition of RTK/PI3K/AKT/mTOR signaling in human U87 cells assessed as up regulation of MYH15 gene expression at cytotoxic IC50 measured after 48 hrs relative to control
[19] = Inhibition of RTK/PI3K/AKT/mTOR signaling in human U87 cells assessed as up regulation of TESMIN gene expression at cytotoxic IC50 measured after 48 hrs relative to control
[20] = Inhibition of RTK/PI3K/AKT/mTOR signaling in human U87 cells assessed as up regulation of LENG9 gene expression at cytotoxic IC50 measured after 48 hrs relative to control
[21] = Inhibition of RTK/PI3K/AKT/mTOR signaling in human U87 cells assessed as up regulation of LINC01405 gene expression at cytotoxic IC50 measured after 48 hrs relative to control
[22] = Inhibition of RTK/PI3K/AKT/mTOR signaling in human U87 cells assessed as up regulation of SYNPO gene expression at cytotoxic IC50 measured after 48 hrs relative to control
[23] = Inhibition of RTK/PI3K/AKT/mTOR signaling in human U87 cells assessed as up regulation of zinc finger protein 524 gene expression at cytotoxic IC50 measured after 48 hrs relative to control
[24] = Inhibition of RTK/PI3K/AKT/mTOR signaling in human U87 cells assessed as up regulation of NIMA related kinase 6 gene expression at cytotoxic IC50 measured after 48 hrs relative to control
[25] = Inhibition of RTK/PI3K/AKT/mTOR signaling in human U87 cells assessed as up regulation of discs large MAGUK scaffold protein 1 gene expression at cytotoxic IC50 measured after 48 hrs relative to control
[26] = Inhibition of RTK/PI3K/AKT/mTOR signaling in human U87 cells assessed as up regulation of mannose receptor C type 2 gene expression at cytotoxic IC50 measured after 48 hrs relative to control
[27] = Inhibition of RTK/PI3K/AKT/mTOR signaling in human U87 cells assessed as up regulation of pleckstrin homology and RhoGEF domain containing G4 gene expression at cytotoxic IC50 measured after 48 hrs relative to control
[28] = Inhibition of RTK/PI3K/AKT/mTOR signaling in human U87 cells assessed as up regulation of ATPase phospholipid transporting 8B2 gene expression at cytotoxic IC50 measured after 48 hrs relative to control
[29] = Inhibition of RTK/PI3K/AKT/mTOR signaling in human U87 cells assessed as up regulation of dual specificity phosphatase 4 gene expression at cytotoxic IC50 measured after 48 hrs relative to control
[30] = Inhibition of RTK/PI3K/AKT/mTOR signaling in human U87 cells assessed as up regulation of CDCP1 gene expression at cytotoxic IC50 measured after 48 hrs relative to control
[31] = Inhibition of RTK/PI3K/AKT/mTOR signaling in human U87 cells assessed as up regulation of GRAMD1A gene expression at cytotoxic IC50 measured after 48 hrs relative to control
[32] = Inhibition of RTK/PI3K/AKT/mTOR signaling in human U87 cells assessed as up regulation of SAT1 gene expression at cytotoxic IC50 measured after 48 hrs relative to control

CC(=O)C(=NNc1ccccc1C#N)C(C)=O
log2FC [1]: -2.15 | log2FC [2]: -1.97 | log2FC [3]: -1.68 | log2FC [4]: -1.52 | log2FC [5]: -1.27 | log2FC [6]: -0.951 | log2FC [7]: -0.858 | log2FC [8]: -0.837 | log2FC [9]: -0.809 | log2FC [10]: -0.78 | log2FC [11]: -0.732 | log2FC [12]: -0.709 | log2FC [13]: -0.669 | log2FC [14]: -0.65 | log2FC [15]: -0.634 | log2FC [16]: -0.509 | log2FC [17]: 3.11 | log2FC [18]: 2.79 | log2FC [19]: 2.06 | log2FC [20]: 2.03 | log2FC [21]: 1.92 | log2FC [22]: 1.74 | log2FC [23]: 1.44 | log2FC [24]: 1.33 | log2FC [25]: 1.3 | log2FC [26]: 1.13 | log2FC [27]: 1.12 | log2FC [28]: 1.09 | log2FC [29]: 0.831 | log2FC [30]: 0.635 | log2FC [31]: 0.561 | log2FC [32]: 0.36
